Results deposited as PubChem BioAssay AID1224826 (NIAID, 2016).

Test: 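Genes that change LPS-induced Tnf promoter activity in mouse macrophages when knocked down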 (primary screen)
System: RAW264.7 G9 macrophages from mouse bearing reporters for p65 (GFP) and the Tnf promoter (mCherry)
Reagent: siRNA pool against mouse genes, 100 nM
Timing: 16 h of LPS stimulation, after 2 days of siRNA transfection
Conditions: bacterial lipopolysaccharide (Salmonella minnesota R595), 10 ng/ml
Read-out: 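Imaged Tnf reporter mCherry in nuclei, minus background, normalised per plate to the median and expressed as robust z-scores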
Direction: Tnf reporter robust z-score: higher = stronger Tnf promoter reporter signal after LPS
Hit rule: 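a well counts as active at a score of -1.3 or below (Tlr4 knock-down control median) or above 3 (raised signal); controls and wells holding fewer than 50 cells are excluded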
Calls: active = Tnf reporter clearly lowered or raised; inactive = no clear change in Tnf reporter
The whole screen tested about 17,000 reagents; below is a part drawn at random. About 1,110 of them (6.6%) were called active. 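Active means lowered or raised reporter signal; replicate intensities are raw and not normalised per plate.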 Unmarked entries are inactive. Not all columns of the deposit are shown.

{"Gene": "Tsg101 (tumor susceptibility gene 101)", "Tnf reporter robust z-score": -0.92, "fewer than 50 cells in well": "enough cells in well"}
{"Gene": "Rnf135 (ring finger protein 135)", "fewer than 50 cells in well": "fewer than 50 cells per well; well left out of calls"}
{"Gene": "Akr1e1 (aldo-keto reductase family 1, member E1)", "Tnf reporter robust z-score": -0.88, "fewer than 50 cells in well": "enough cells in well"}
{"Gene": "Or4c11c (olfactory receptor family 4 subfamily C member 11C)", "Tnf reporter robust z-score": 2.78, "fewer than 50 cells in well": "enough cells in well"}
{"Gene": "Fndc7 (fibronectin type III domain containing 7)", "Tnf reporter robust z-score": 1.46, "fewer than 50 cells in well": "enough cells in well"}
{"Gene": "Fam53b (family with sequence similarity 53, member B)", "Tnf reporter robust z-score": "-1.54 (active)", "fewer than 50 cells in well": "enough cells in well"}
{"Gene": "Dstyk (dual serine/threonine and tyrosine protein kinase)", "Tnf reporter robust z-score": 0.53, "fewer than 50 cells in well": "enough cells in well"}
{"Gene": "Wdr62 (WD repeat domain 62)", "fewer than 50 cells in well": "fewer than 50 cells per well; well left out of calls"}
{"Gene": "Commd8 (COMM domain containing 8)", "Tnf reporter robust z-score": 2.47, "fewer than 50 cells in well": "enough cells in well"}
{"Gene": "Suclg1 (succinate-CoA ligase, GDP-forming, alpha subunit)", "Tnf reporter robust z-score": 0.92, "fewer than 50 cells in well": "enough cells in well"}
{"Gene": "Adcyap1r1 (adenylate cyclase activating polypeptide 1 receptor 1)", "Tnf reporter robust z-score": 0.68, "fewer than 50 cells in well": "enough cells in well"}
{"Gene": "Zmynd19 (zinc finger, MYND domain containing 19)", "Tnf reporter robust z-score": 0.65, "fewer than 50 cells in well": "enough cells in well"}
{"Gene": "Mat2a (methionine adenosyltransferase 2A)", "Tnf reporter robust z-score": -0.18, "fewer than 50 cells in well": "enough cells in well"}
{"Gene": "Gstm5 (glutathione S-transferase, mu 5)", "Tnf reporter robust z-score": -0.82, "fewer than 50 cells in well": "enough cells in well"}
{"Gene": "Cops6 (COP9 signalosome subunit 6)", "Tnf reporter robust z-score": -0.16, "fewer than 50 cells in well": "enough cells in well"}
{"Gene": "B430217B02Rik (retired record)", "Tnf reporter robust z-score": 0.32, "fewer than 50 cells in well": "enough cells in well"}
{"Gene": "Tecrl (trans-2,3-enoyl-CoA reductase-like)", "Tnf reporter robust z-score": 1.41, "fewer than 50 cells in well": "enough cells in well"}
{"Gene": "Neurod4 (neurogenic differentiation 4)", "Tnf reporter robust z-score": 1.1, "fewer than 50 cells in well": "enough cells in well"}
{"Gene": "Kif1a (kinesin family member 1A)", "Tnf reporter robust z-score": -0.16, "fewer than 50 cells in well": "enough cells in well"}
{"Gene": "Ammecr1l (AMME chromosomal region gene 1-like)", "Tnf reporter robust z-score": "-1.75 (active)", "fewer than 50 cells in well": "enough cells in well"}
{"Gene": "Exd1 (exonuclease 3'-5' domain containing 1)", "Tnf reporter robust z-score": 1.12, "fewer than 50 cells in well": "enough cells in well"}

Hits (from the list above):
{"Gene": "Fam53b (family with sequence similarity 53, member B)", "Tnf reporter robust z-score": "-1.54 (active)", "fewer than 50 cells in well": "enough cells in well"}
{"Gene": "Ammecr1l (AMME chromosomal region gene 1-like)", "Tnf reporter robust z-score": "-1.75 (active)", "fewer than 50 cells in well": "enough cells in well"}
